Laboratory results reported in the supplement of paper PMC11732987, “Enantioselective OTUD7B fragment discovery through chemoproteomics screening and high-throughput optimisation” (Communications Chemistry, 2025).
The list shows a part of the results. The data scatter; read single values as rough.

Amino acid sequences for entries named in this document (tags omitted). A change or cut given only in a name is not applied to a line headed by its entry. Residues count along the entry.
UniProt Q9NV96, 2-24: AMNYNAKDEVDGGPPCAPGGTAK
UniProt P60174: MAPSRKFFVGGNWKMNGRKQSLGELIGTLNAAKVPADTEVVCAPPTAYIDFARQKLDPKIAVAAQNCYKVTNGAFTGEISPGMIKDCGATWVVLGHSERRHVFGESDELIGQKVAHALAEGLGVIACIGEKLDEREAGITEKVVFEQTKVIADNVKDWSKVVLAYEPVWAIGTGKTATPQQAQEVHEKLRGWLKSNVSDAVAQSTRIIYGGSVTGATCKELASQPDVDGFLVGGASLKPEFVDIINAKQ
UniProt Q9BVK6: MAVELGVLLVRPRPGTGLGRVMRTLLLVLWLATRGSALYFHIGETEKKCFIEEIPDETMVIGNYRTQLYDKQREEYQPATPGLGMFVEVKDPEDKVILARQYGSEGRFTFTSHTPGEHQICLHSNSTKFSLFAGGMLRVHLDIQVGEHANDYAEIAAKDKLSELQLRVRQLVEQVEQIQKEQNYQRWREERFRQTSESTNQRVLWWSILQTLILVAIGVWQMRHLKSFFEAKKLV
UniProt Q6NUQ4: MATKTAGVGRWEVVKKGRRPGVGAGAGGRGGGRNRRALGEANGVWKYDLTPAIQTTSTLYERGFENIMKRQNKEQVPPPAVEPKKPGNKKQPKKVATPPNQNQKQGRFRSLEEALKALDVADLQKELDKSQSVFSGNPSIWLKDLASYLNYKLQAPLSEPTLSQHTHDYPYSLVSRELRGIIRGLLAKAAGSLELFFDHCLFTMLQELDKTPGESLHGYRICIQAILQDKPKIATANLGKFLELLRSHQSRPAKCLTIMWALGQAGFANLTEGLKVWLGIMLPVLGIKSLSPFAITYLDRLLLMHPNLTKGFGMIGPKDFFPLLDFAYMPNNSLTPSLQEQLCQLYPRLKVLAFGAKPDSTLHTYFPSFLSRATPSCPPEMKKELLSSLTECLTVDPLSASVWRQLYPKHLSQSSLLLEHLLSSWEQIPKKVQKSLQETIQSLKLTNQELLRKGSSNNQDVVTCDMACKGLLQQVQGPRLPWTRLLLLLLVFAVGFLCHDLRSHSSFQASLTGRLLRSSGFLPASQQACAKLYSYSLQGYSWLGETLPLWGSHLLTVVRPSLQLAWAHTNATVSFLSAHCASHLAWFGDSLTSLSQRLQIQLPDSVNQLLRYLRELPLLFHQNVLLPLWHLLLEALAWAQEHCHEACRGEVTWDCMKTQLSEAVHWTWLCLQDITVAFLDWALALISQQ
UniProt P48553: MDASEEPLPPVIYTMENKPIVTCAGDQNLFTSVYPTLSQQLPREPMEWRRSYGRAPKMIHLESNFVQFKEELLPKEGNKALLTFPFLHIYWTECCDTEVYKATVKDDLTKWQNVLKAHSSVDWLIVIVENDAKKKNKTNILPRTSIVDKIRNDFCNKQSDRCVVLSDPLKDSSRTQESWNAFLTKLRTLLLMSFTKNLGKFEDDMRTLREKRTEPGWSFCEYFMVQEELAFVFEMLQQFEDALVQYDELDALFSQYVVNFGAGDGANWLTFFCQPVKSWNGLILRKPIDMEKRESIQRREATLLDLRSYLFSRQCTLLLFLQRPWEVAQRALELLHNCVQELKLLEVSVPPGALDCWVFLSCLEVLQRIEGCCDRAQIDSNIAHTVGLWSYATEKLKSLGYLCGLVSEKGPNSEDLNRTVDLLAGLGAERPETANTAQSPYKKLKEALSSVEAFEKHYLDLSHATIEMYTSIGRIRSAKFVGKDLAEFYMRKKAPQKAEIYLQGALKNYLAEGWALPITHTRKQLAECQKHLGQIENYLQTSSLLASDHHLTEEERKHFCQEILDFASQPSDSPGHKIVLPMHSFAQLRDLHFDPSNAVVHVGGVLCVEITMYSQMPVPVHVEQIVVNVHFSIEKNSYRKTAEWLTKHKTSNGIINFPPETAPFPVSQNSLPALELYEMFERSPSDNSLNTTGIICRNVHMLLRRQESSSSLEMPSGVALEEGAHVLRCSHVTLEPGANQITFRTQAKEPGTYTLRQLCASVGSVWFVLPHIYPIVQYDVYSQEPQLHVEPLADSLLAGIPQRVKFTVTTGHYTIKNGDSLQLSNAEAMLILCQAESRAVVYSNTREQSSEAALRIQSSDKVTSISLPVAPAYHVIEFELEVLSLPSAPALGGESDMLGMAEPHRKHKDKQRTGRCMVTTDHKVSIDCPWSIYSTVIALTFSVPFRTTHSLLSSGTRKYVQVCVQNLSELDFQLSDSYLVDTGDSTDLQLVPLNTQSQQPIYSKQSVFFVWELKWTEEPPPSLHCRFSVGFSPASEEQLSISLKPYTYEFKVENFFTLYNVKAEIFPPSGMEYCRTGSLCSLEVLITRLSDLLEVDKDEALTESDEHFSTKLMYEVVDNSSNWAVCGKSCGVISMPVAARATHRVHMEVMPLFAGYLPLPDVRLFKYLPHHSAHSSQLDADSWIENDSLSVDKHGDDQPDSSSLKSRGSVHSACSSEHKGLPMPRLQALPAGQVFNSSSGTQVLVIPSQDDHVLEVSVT
UniProt Q99805: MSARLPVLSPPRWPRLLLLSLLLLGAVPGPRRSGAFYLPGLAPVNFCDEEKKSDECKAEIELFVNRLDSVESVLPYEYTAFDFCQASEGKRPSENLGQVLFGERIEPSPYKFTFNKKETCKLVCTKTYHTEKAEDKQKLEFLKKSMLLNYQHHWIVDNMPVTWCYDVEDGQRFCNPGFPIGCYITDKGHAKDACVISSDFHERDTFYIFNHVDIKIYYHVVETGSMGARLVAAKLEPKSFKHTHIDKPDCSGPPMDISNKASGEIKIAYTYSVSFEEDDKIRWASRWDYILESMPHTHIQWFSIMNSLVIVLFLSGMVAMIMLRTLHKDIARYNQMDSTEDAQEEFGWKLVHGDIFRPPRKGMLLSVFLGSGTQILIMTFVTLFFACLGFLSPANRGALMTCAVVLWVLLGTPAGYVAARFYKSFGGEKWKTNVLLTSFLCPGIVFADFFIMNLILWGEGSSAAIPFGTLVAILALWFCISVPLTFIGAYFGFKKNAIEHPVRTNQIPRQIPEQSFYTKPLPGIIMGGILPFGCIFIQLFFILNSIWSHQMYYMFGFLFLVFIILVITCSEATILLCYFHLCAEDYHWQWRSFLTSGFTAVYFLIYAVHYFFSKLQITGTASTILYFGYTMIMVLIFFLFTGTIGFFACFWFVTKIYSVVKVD
UniProt Q12933: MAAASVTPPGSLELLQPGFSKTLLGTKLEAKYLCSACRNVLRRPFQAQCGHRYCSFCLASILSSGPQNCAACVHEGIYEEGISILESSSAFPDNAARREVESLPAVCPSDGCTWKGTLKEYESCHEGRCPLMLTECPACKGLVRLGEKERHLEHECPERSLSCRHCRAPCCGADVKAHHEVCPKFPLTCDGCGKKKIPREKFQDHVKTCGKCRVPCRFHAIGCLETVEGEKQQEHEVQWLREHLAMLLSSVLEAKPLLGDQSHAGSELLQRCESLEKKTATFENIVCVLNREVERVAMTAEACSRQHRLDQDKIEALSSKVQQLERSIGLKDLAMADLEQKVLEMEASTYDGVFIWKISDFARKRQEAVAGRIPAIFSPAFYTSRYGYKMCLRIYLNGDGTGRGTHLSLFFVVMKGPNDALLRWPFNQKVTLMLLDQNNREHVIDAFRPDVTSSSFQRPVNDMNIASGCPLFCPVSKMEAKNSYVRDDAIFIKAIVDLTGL
UniProt Q9Y490, 722-741: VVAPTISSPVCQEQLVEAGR
UniProt A5PLN9: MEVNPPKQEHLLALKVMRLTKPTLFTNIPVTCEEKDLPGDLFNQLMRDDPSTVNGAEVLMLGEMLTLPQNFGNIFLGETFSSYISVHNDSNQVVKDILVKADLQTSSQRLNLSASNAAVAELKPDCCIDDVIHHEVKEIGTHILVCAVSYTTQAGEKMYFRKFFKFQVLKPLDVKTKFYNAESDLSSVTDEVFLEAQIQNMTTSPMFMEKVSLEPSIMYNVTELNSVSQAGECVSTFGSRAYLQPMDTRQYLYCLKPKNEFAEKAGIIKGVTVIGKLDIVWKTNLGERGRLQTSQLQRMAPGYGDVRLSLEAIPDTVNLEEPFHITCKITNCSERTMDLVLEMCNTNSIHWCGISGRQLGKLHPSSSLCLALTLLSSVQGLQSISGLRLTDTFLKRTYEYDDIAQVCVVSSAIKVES
UniProt Q68CZ2: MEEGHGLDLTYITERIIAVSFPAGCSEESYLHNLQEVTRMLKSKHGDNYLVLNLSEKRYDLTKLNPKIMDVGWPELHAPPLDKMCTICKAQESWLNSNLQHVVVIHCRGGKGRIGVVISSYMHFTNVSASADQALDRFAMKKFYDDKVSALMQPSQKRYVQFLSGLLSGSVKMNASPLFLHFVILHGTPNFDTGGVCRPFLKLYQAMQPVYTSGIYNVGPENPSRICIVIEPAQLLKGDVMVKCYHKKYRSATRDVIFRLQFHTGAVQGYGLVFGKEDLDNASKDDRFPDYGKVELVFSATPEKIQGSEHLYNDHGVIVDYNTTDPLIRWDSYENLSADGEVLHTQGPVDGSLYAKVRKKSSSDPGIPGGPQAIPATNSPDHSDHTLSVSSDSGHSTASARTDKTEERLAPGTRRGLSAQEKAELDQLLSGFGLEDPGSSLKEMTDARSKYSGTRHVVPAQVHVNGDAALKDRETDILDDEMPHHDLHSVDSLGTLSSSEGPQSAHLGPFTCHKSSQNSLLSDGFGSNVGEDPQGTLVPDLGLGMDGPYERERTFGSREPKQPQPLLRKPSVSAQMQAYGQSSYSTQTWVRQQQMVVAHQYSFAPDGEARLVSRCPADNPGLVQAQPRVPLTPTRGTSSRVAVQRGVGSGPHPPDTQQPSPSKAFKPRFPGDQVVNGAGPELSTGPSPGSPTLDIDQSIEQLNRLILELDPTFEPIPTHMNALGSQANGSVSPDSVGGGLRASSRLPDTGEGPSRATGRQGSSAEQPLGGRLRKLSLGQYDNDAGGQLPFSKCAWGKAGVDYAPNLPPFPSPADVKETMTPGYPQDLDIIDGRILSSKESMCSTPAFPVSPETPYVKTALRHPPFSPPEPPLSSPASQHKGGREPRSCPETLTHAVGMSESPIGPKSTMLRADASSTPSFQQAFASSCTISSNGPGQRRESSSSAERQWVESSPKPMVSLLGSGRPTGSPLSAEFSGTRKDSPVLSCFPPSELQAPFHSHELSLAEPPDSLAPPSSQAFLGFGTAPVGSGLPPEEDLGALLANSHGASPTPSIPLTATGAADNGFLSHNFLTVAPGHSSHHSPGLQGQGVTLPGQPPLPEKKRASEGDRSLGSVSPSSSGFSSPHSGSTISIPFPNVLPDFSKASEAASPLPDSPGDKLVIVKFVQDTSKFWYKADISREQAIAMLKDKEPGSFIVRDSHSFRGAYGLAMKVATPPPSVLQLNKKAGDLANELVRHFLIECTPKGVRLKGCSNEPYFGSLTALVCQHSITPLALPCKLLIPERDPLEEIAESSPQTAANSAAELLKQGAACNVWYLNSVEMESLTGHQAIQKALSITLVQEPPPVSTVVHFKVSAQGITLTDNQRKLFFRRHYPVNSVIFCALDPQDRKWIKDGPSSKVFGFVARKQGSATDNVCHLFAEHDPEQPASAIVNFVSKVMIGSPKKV
UniProt P19438, whole entry, looked up: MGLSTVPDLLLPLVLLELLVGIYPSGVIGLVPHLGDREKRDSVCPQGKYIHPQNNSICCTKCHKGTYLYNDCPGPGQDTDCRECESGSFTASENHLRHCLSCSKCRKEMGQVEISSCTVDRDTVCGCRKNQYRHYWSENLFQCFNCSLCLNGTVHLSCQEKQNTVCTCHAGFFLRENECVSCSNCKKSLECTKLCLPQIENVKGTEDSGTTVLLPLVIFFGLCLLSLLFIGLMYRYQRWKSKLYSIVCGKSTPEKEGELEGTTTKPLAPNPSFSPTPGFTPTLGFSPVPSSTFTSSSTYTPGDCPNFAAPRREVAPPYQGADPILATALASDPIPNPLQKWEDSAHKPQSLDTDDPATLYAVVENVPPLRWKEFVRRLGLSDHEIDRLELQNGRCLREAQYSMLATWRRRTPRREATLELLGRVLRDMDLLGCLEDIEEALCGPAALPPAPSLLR
UniProt Q15785: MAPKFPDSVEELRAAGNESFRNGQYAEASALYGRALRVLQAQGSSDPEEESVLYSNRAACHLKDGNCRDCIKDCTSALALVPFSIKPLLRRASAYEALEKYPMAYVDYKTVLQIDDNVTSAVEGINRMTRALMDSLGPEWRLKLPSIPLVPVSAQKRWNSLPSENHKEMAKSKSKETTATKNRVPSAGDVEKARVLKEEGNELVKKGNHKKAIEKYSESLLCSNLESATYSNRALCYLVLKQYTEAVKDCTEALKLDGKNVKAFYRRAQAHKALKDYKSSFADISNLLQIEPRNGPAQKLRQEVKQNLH

Compound: ClCC(=O)N[C@H]1CCCc2ccccc12
Experiment: log2 mean competition ratio of IA-DTB cysteine labelling (DMSO/compound) (log2 ratio); higher = stronger cysteine engagement by compound
Conditions: 50 µM; treatment time: 4 h; cell line lysate: HEK293T
Protocol: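 IA-DTB competitive cysteine chemoproteomics in HEK293T RIPA lysate. Lysates were treated with compound 29 or 30 at 50 or 200 µM for 4 h, then IA-DTB (500 µM, 1 h), trypsin-digested, NeutrAvidin-enriched and analysed by diaPASEF. Competition ratio = intensity DMSO / intensity compound (n=4 treated, n=64 DMSO); binding: mean log2 CR ≥ 1 and p ≤ 0.05 plus QC filters. Target is the cysteine site.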

| Target | log2 mean competition ratio |
| --- | --- |
| TMEM30A C17 (UniProt Q9NV96) | 0.384 |
| TMEM39B C67 | 0.451 |
| TMSB15A;TMSB15B C41;(C41) | -0.0749 |
| TPI1 C87 (UniProt P60174) | -0.247 |
| TMED9 C49 (UniProt Q9BVK6) | -0.203 |
| TMLHE C103 (UniProt Q9NVH6) | -0.169 |
| TMEM214 C222 (UniProt Q6NUQ4) | -0.256 |
| TRAPPC10 C696 (UniProt P48553) | -0.373 |
| TM9SF2 C194 (UniProt Q99805) | -0.647 |
| TMEM45A C38 | 0.0778 |
| TRAF2 C182 (UniProt Q12933) | -0.129 |
| TLN1 C732 (UniProt Q9Y490) | -0.0483 |
| TMEM50B C89 | 0.241 |
| TRAPPC13 C332 (UniProt A5PLN9) | -0.224 |
| TNS3 C1241 (UniProt Q68CZ2) | -0.409 |
| TRIO C1207 (UniProt O75962) | 0.214 |
| TLE3 C26 | 0.00116 |
| TMA16 C162 (UniProt Q96EY4) | 0.285 |
| TNFRSF1A C248 (UniProt P19438) | 0.0556 |
| TOMM34 C250 (UniProt Q15785) | 0.232 |

Same assay, conditions: 200 µM; treatment time: 4 h; cell line lysate: HEK293T

| Target | log2 mean competition ratio |
| --- | --- |
| TMEM30A C17 (UniProt Q9NV96) | -0.037 |
| TMEM39B C67 | -0.0596 |
| TMSB15A;TMSB15B C41;(C41) | 0.0971 |
| TPI1 C87 (UniProt P60174) | -0.0883 |
| TMED9 C49 (UniProt Q9BVK6) | -0.0837 |
| TMLHE C103 (UniProt Q9NVH6) | 0.0465 |
| TMEM214 C222 (UniProt Q6NUQ4) | -0.231 |
| TRAPPC10 C696 (UniProt P48553) | 0.261 |
| TM9SF2 C194 (UniProt Q99805) | -0.0858 |
| TMEM45A C38 | 0.232 |
| TRAF2 C182 (UniProt Q12933) | 0.0771 |
| TLN1 C732 (UniProt Q9Y490) | 0.16 |
| TMEM50B C89 | 0.086 |
| TRAPPC13 C332 (UniProt A5PLN9) | -0.217 |
| TNS3 C1241 (UniProt Q68CZ2) | 0.0617 |
| TRIO C1207 (UniProt O75962) | -0.0915 |
| TLE3 C26 | 0.0742 |
| TMA16 C162 (UniProt Q96EY4) | -0.366 |
| TNFRSF1A C248 (UniProt P19438) | -0.279 |
| TOMM34 C250 (UniProt Q15785) | -0.136 |
